Measured values from patent US20070207120A1, “Selective Killing Of Cancer Cells By Induction Of Acetyltransferase Via Tnf-Alpha And Il-6” (priority 2004, published 2007).

Test system: transformed WI38 VA13 cells
Test: Cytokine and deacetylase inhibitor treatment, transformed cells
Format: cell-based, human
Conditions: SAHA 5 μg/ml alone and in combination with cytokines
Procedure: Human cells WI38 (ATCC number CCL-75), WI38 VA13 (ECACC number 85062512), SaOS2 (ECACC number 89050205), U20S (ATCC number HTB-96), HeLa (CCL-2), HEK 293 (ATCC number CRL-1573) and Hs68 (ATCC number CRL-1635) were obtained from ATCC, ECACC or CR-UK cell services. All cells were cultured as monolayers in 10% foetal bovine serum in Dulbecco's minimal essential medium at 37° C. in 5% CO2, except SaOS2 cells which were cultured in McCoy's 5a medium supplemented with 1.5 mM L-glutamine and 15% foetal bovine serum. VA13 cells are WI38 primary fibroblasts transformed with SV40 virus and therefore share the same genetic background. To measure cell viability and total cell number, cells in suspension and adherent cells were collated and analysed by resuspending with a known concentration of CaliBRITE unlabelled beads (Becton Dickinson) plus propidium iodide and counting the number of live and dead cells per 3000 beads using a FACSCalibur flow cytometer (Becton Dickinson). Alternatively, an automated trypan blue assay using a Vi-Cell XR Cell Viability Analyzer (Beckman Coulter) was employed. […] For cytokine treatment in combination with deacetylase inhibitors, cells were harvested and counted 48 hours after addition of deacetylase inhibitor.

Structure (SMILES): O=C(CCCCCCC(=O)Nc1ccccc1)NO [SAHA, suberoylanilide hydroxamic acid]
- killing of VA13 cells: very effective
